Data reported in US6902881B2, “Compounds and methods for regulating cell differentiation” (priority 2000, dated 2005).

Assay: Distribution of biliverdine in isopycnic sucrose gradient fractions of oocyte homogenate
Parameters: species or system Xenopus laevis

Measured: Biliverdine in sucrose gradient fraction

C=CC1=C(C)/C(=C/C2=NC(=C\c3[nH]c(/C=C4\NC(=O)C(C)=C4C=C)c(C)c3CCC(=O)O)/C(CCC(=O)O)=C2C)NC1=O [Biliverdin, biliverdin IXα]
Not Present: fraction 1, LIPIDS | fraction 2, CYTOSOL | fraction 3, CYTOSOL | fraction 4, ENDOCYTOSED VESICLES | fraction 5, MULTI VESICULAR BODIES AND MITOCHONDRIA
